Assay results: publication PMC11100153
These are yes or no findings as the source states them, for the method shown. Binding seen in cells or lysates may run through a third protein. Some entries that bind do so weakly or less than the wild type.

By UniProt entry, the sequences of proteins in these tests, tags left out.
UniProt Q96PU5: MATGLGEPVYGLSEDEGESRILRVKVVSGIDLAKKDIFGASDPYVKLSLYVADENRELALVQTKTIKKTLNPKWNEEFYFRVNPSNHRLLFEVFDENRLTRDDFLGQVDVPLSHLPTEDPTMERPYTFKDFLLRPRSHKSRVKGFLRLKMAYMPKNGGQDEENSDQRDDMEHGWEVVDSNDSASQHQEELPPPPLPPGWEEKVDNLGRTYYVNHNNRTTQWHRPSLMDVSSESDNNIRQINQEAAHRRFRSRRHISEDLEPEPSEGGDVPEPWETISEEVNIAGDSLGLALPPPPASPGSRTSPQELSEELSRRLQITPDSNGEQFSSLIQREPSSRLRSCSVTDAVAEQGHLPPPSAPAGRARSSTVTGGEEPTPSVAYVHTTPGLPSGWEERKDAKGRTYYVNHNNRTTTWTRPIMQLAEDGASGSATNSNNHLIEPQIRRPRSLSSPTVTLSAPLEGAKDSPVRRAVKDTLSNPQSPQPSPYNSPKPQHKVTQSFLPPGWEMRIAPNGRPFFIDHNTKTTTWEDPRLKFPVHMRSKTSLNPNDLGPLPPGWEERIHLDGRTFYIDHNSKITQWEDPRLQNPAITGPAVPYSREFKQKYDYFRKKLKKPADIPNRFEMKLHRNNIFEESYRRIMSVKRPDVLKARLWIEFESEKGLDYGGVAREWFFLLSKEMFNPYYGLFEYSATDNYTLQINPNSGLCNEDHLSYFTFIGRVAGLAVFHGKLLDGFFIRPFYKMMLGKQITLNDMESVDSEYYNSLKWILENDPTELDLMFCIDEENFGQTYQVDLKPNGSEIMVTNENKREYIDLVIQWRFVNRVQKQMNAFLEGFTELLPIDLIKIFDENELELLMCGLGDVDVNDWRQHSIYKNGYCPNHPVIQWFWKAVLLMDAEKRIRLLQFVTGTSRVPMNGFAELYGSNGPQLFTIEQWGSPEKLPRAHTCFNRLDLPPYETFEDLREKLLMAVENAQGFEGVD
UniProt Q96RR4: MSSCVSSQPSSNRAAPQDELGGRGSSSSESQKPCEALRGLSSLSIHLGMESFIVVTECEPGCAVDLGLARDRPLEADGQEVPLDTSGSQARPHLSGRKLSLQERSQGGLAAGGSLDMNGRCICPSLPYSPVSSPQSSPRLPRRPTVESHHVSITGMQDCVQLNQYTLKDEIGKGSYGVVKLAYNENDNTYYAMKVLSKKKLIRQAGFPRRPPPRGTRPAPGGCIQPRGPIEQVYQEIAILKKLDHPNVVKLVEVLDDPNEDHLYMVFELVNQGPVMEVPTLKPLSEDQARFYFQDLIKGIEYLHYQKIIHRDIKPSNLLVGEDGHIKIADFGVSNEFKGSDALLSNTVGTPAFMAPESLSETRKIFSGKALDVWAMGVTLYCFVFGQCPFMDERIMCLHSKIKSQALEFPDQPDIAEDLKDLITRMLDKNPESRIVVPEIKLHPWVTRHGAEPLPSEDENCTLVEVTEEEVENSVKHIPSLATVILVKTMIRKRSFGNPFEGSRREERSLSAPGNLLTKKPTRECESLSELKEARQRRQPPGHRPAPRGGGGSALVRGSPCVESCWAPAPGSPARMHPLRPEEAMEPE

Target: NEDD4L (human (endogenous in HK-2)) (UniProt Q96PU5)
Assay: co-IP; NEDD4L antibodies used to isolate complexes from HK-2 cell lysate (IP lysis buffer: 50 mM Tris pH 7.4, 1 mM EDTA, 150 mM NaCl, 0.5% NP-40, protease inhibitors; 4 °C), Protein A/G PLUS-Agarose, SDS-PAGE and immunoblot with CaMKKβ antibodies

binding: binds
Substance: CaMKKβ (calmodulin-dependent protein kinase β) (from UniProt Q96RR4 1-588)
